According to PubChem BioAssay AID272 (DTP/NCI, 2004):
The list shows only some results of the screen, not a fair sample: it gathers some chemical classes. Not every dose and run of a compound is shown. T/C: endpoint of the treated group in % of that of the vehicle group. Schedules are NCI's codes, read here as Q, the interval in days (D) or hours (H), X, the number of doses. Some T/C values are followed by the survivors on the day toxicity was checked; without a count or a note in brackets, all were alive then. Some doses have a count of surviving animals in place of a T/C: the source holds a T/C of zero for them, seemingly a mark for toxic or unscored doses. Survivors were counted at the toxicity check, usually on the fifth day, unless a day is given; later deaths do not show. Survivors were counted at the toxicity check; its day is shown where the source gives one, and later deaths do not show. For survival time, this PubChem deposit counts one and a half times the control or more as active, and values a quarter to a half above the control carry no call in these data; other NCI protocols may use other cut-offs.

Test system: Lewis lung carcinoma i.m., BDF1 mice, T/C %
Test: NCI In Vivo Anticancer Drug Screen. Data for tumor model Lewis Lung Carcinoma (intramuscular) in B6D2F1 (BDF1) mice
Experimental: The antitumor activity of compounds was measured in mice bearing transplantable tumors. Survival or tumor size were measured and the results are expressed as the measurement made in the treated group (T) divided by the measurement made in the vehicle treated control group (C). The tumor model used in this assay is Lewis Lung Carcinoma (intramuscular) in B6D2F1 (BDF1) mice

OC(CNCCCl)C(O)C(O)C(O)CNCCCl (stereo not drawn)
T/C (T/C endpoint: mean tumor weight, dose: 2.5 mg/kg/injection, schedule: Q01DX011 (ip), vehicle: saline, evaluated on day 12, higher T/C = larger tumour): 99 % of control | survivor count (T/C endpoint: mean tumor weight, dose: 5.0 mg/kg/injection, schedule: Q01DX011 (ip), vehicle: saline, higher T/C = larger tumour): 5 of 8 | survivor count (T/C endpoint: mean tumor weight, dose: 10.0 mg/kg/injection, schedule: Q01DX011 (ip), vehicle: saline, higher T/C = larger tumour): 4 of 8 | survivor count (T/C endpoint: mean tumor weight, dose: 20.0 mg/kg/injection, schedule: Q01DX011 (ip), vehicle: saline, higher T/C = larger tumour): 1 of 8 | T/C (T/C endpoint: median survival time, dose: 2.5 mg/kg/injection, schedule: Q01DX011 (ip), vehicle: saline, higher T/C = longer survival): 95 % of control | survivor count (T/C endpoint: median survival time, dose: 5.0 mg/kg/injection, schedule: Q01DX011 (ip), vehicle: saline, higher T/C = longer survival): 5 of 8 | survivor count (T/C endpoint: median survival time, dose: 10.0 mg/kg/injection, schedule: Q01DX011 (ip), vehicle: saline, higher T/C = longer survival): 4 of 8 | survivor count (T/C endpoint: median survival time, dose: 20.0 mg/kg/injection, schedule: Q01DX011 (ip), vehicle: saline, higher T/C = longer survival): 1 of 8 | survivor count (T/C endpoint: median survival time, dose: 40.0 mg/kg/injection, schedule: Q01DX011 (ip), vehicle: saline, higher T/C = longer survival): 0 of 8

CC(Cl)CN(CC(C)Cl)C(=O)OCC(N)C(=O)O (stereo not drawn)
T/C (T/C endpoint: mean tumor weight, dose: 12.5 mg/kg/injection, schedule: Q01DX011 (ip), vehicle: saline, evaluated on day 12, higher T/C = larger tumour): 110 % of control | T/C (T/C endpoint: mean tumor weight, dose: 12.5 mg/kg/injection, schedule: Q01DX011 (ip), vehicle: water, evaluated on day 12, higher T/C = larger tumour): 97 % of control | T/C (T/C endpoint: mean tumor weight, dose: 25.0 mg/kg/injection, schedule: Q01DX011 (ip), vehicle: saline, evaluated on day 12, higher T/C = larger tumour): 82 % of control | T/C (T/C endpoint: mean tumor weight, dose: 25.0 mg/kg/injection, schedule: Q01DX011 (ip), vehicle: water, evaluated on day 12, higher T/C = larger tumour): 119 % of control | T/C (T/C endpoint: mean tumor weight, dose: 50.0 mg/kg/injection, schedule: Q01DX011 (ip), vehicle: saline, evaluated on day 12, higher T/C = larger tumour): 87 % of control | T/C (T/C endpoint: mean tumor weight, dose: 50.0 mg/kg/injection, schedule: Q01DX011 (ip), vehicle: water, evaluated on day 12, higher T/C = larger tumour): 99 % of control | T/C (T/C endpoint: mean tumor weight, dose: 100.0 mg/kg/injection, schedule: Q01DX011 (ip), vehicle: saline, evaluated on day 12, higher T/C = larger tumour): 82 % of control | T/C (T/C endpoint: mean tumor weight, dose: 100.0 mg/kg/injection, schedule: Q01DX011 (ip), vehicle: water, evaluated on day 12, higher T/C = larger tumour): 90 % of control | T/C (T/C endpoint: mean tumor weight, dose: 200.0 mg/kg/injection, schedule: Q01DX011 (ip), vehicle: saline, evaluated on day 12, higher T/C = larger tumour): 93 % of control | T/C (T/C endpoint: mean tumor weight, dose: 200.0 mg/kg/injection, schedule: Q01DX011 (ip), vehicle: water, evaluated on day 12, higher T/C = larger tumour): 95 % of control | T/C (T/C endpoint: mean tumor weight, dose: 400.0 mg/kg/injection, schedule: Q01DX011 (ip), vehicle: water, evaluated on day 12, higher T/C = larger tumour): 99 % of control [6 of 8 alive] | T/C (T/C endpoint: median survival time, dose: 12.5 mg/kg/injection, schedule: Q01DX010 (ip), vehicle: water, higher T/C = longer survival): 104 % of control | T/C (T/C endpoint: median survival time, dose: 12.5 mg/kg/injection, schedule: Q01DX011 (ip), vehicle: saline, higher T/C = longer survival): 116 % of control | T/C (T/C endpoint: median survival time, dose: 25.0 mg/kg/injection, schedule: Q01DX010 (ip), vehicle: water, higher T/C = longer survival): 104 % of control | T/C (T/C endpoint: median survival time, dose: 25.0 mg/kg/injection, schedule: Q01DX011 (ip), vehicle: saline, higher T/C = longer survival): 102 % of control | T/C (T/C endpoint: median survival time, dose: 50.0 mg/kg/injection, schedule: Q01DX010 (ip), vehicle: water, higher T/C = longer survival): 95 % of control | T/C (T/C endpoint: median survival time, dose: 50.0 mg/kg/injection, schedule: Q01DX011 (ip), vehicle: saline, higher T/C = longer survival): 133 % of control | T/C (T/C endpoint: median survival time, dose: 100.0 mg/kg/injection, schedule: Q01DX010 (ip), vehicle: water, higher T/C = longer survival): 114 % of control | T/C (T/C endpoint: median survival time, dose: 100.0 mg/kg/injection, schedule: Q01DX011 (ip), vehicle: saline, higher T/C = longer survival): 128 % of control | T/C (T/C endpoint: median survival time, dose: 200.0 mg/kg/injection, schedule: Q01DX010 (ip), vehicle: water, higher T/C = longer survival): 97 % of control | T/C (T/C endpoint: median survival time, dose: 200.0 mg/kg/injection, schedule: Q01DX011 (ip), vehicle: saline, higher T/C = longer survival): 102 % of control

NC(=O)c1[nH]cnc1/N=N\N(CCCl)CCCl
T/C (T/C endpoint: mean tumor weight, dose: 25.0 mg/kg/injection, schedule: Q01DX011 (ip), vehicle: other, evaluated on day 12, higher T/C = larger tumour): 36 % of control [7 of 8 alive] | T/C (T/C endpoint: mean tumor weight, dose: 50.0 mg/kg/injection, schedule: Q01DX011 (ip), vehicle: other, evaluated on day 12, higher T/C = larger tumour): 20 % of control | T/C (T/C endpoint: mean tumor weight, dose: 100.0 mg/kg/injection, schedule: Q01DX011 (ip), vehicle: other, evaluated on day 12, higher T/C = larger tumour): 20 % of control
